Laboratory results: PubChem BioAssay AID1347423 (Functional Genomics Laboratory (NCATS/FGL), 2020)
Out of some 52,000 sequences screened, about 210 (0.4%) were called active.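 How the source made its calls: active means gene whose silencing raises cell survival under the drug, median off-target-corrected z-score across its silencing RNAs 2 or more; inactive means the rest.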 The list shows a part of the results.

Assay: Resistance to Poly (ADP-Ribose) Polymerase inhibitor: Gene Identification via Genome-wide siRNA Screen
Details: mouse BRCA2 R2336H ES cells, olaparib, CellTiter-Glo viability; active compounds read high
Outline: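 Genome-wide siRNA screen (3 siRNAs/gene, 20 nM) in mouse ES cells carrying hypomorphic BRCA2 R2336H; olaparib 500 nM added 48 h post-transfection, CellTiter-Glo viability 72 h later. Normalized to plate-median negative control; MAD z-scores, gene median, seed-adjusted.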
With CCGAGUGUAAUUUCCUAAATT against Pcdhgb5 the z-score was inactive: -0.645. With “GGAGUGGGAAUCUUUGAAATT against 1700022C02Rik” the z-score was inactive: 0.525. With “GGUGGACAUGAGGAAACGATT against 2010315L10Rik” the z-score was inactive: 0.195. In the case of GGAUCUUCGGAAGACAUGUTT against Ppp1r3a, the z-score is reported as inactive: -2.23. With “GGAUUCUGAUCUUUGGUGUTT against C130036G08” the z-score was inactive: 0.0768. For GGAGCAAAUGAUUUCAUGUTT against Tcp1, the z-score was inactive: -1.79. With “CCCACUUUUUUUUAGACUGTT against 2310046K01Rik” the z-score was inactive: -0.433. In the case of GGUAACCAAAACAAUUCUGTT against Cog8, the z-score is reported as inactive: 0.551. For GGUUUUUGGUGUGUUUCUCTT against Ppp1r12c, the z-score was inactive: 0.113. With GCAUGAUAUCAGUGGCAAGTT against Itga11 the z-score was inactive: -1.86. For GCAGUACAAGCCAUCUGUUTT against Olfm4, the z-score was inactive: -1.44. For GGACUUUGUGAGGCUCUUCTT against Lsm2, the z-score was inactive: 0.622. For “CCAGCCUAAUCAAAGACCUTT against A930008G19Rik”, the z-score was inactive: 0.378. In the case of GGUCUAGAGCAAUUCCAUATT against Olfr656, the z-score is reported as inactive: -0.0764. In the case of GGCCUGGAAGUAGCAUUGUTT against Mrpl17, the z-score is reported as inactive: 0.0584. In the case of CCUGCUCAAAGUAAGUUACTT against Gm503, the z-score is reported as inactive: -0.419. For GCCUUAAGCUAACAGUGGATT against Nrxn3, the z-score was inactive: 0.169. With CCGCCUCUUACCGAAGUUCTT against Mettl4 the z-score was inactive: -0.232. With CCAAGCCUAUUCUUAACUUTT against Gm1960 the z-score was inactive: 0.0627. For CGGCAGAGAUUAUAUCAUCTT against Syn3, the z-score was inactive: 0.545. In the case of “GCCCUACUAAGUCAAUUAATT against 1700055D18Rik”, the z-score is reported as inactive: 0.187. For GCAUACCUAUUCACGUACGTT against Slc7a4, the z-score was inactive: -0.0964. With GGGUCUGAUCCGACAUUUCTT against Ndufv1 the z-score was inactive: -0.935. For “GGAGUCACCAGACUUGUGUTT against 9530004A22Rik”, the z-score was inactive: -0.147. For GGUGAGUUAUAAAAGACCATT against Pex12, the z-score was inactive: 0.328. For GGAACUGCCAUUGUAUGGGTT against Myo1g, the z-score was inactive: -2.42. For GGGACUUCAGGGAUUGAUUTT against Atp6v1b1, the z-score was inactive: -0.251. In the case of “CCAGGACUUACUCAGUAAUTT against 0610039J04Rik”, the z-score is reported as inactive: -0.283. For GGCCUUGAAUUUCUCCUAUTT against Dgcr8, the z-score was inactive: 0.3. With CCUAGUUUGGUGAUGAUGUTT against Apg10l the z-score was inactive: -0.93. For GGAUGACACACACUAUUAUTT against Plek2, the z-score was inactive: -0.956. For CGGAACAGACCAUCUCACUTT against Plec1, the z-score was inactive: -1.12. In the case of GGCCAUCGAGGACUCUUCUTT against Dyx1c1, the z-score is reported as inactive: 3.94. With GGCUGCAUUACCCAGCUUATT against Olfr853 the z-score was inactive: -2.62. In the case of GGAGAGCUGCAUCAAAAAGTT against Prdm16, the z-score is reported as inactive: 0.0426. In the case of GCAUCCUACUUCUCAACUUTT against Ceacam12, the z-score is reported as inactive: -0.797. For GGUAACAUCUCCAUCAGCCTT against Nxph3, the z-score was inactive: -0.34. With CCUCUAUGAUUUGUAGAACTT against Prkrir the z-score was inactive: 0.807. In the case of GGGCUUAAAACUUUUCAUATT against Fshprh1, the z-score is reported as inactive: -1.28. For CGGUUUACAUUCCUGACUUTT against AI840980, the z-score was inactive: -0.237. For CGUGGUUCCUCUUUGGUGUTT against Kcnj10, the z-score was inactive: 0.284. For GGUGUAUGGACAAGGAGUUTT against Pgpep1, the z-score was inactive: -0.931. With “CGAGAAAAGAGGUUGGCUGTT against 6330444E15Rik” the z-score was inactive: 1.5. With GGGCUGAAGUUUUAUACCATT against Wasf1 the z-score was inactive: 0.00799. For CCAAGAACCUUCGUCUGCUTT against Apobec2, the z-score was inactive: -0.469. In the case of “CGACACUGAGCUAAGAGAUTT against 2210415M20Rik”, the z-score is reported as inactive: -1.87. For GCUCUAUAUCUCCUUAGCCTT against Olfr450, the z-score was inactive: -0.349. For “GGCAAUUCGAAUUUUGGUUTT against 2700060E02Rik”, the z-score was inactive: 0.788. With GGUAGAAAUUUACCUCAUUTT against Dusp4 the z-score was inactive: -0.722. With GGAACUCACGCUGAGUUCCTT against Lrrtm1 the z-score was inactive: 1.35. In the case of CCUGGCUAUUGGUGAGUGATT against Slc30a3, the z-score is reported as inactive: -0.23. With GGAGGACCUUCAGAAACUCTT against Gdap2 the z-score was inactive: 1.03. With “GCUUUUCGAACAAGAGAAGTT against 1110001J12Rik” the z-score was inactive: 0.0445. With CCACACAAUGGCCAAGUAGTT against Ppp1r16a the z-score was inactive: 0.757. With GGUUCCAUCUGUCCUACUUTT against Actr10 the z-score was inactive: -0.862. For GGAGAAAGCAGAGACAAUGTT against Tnfrsf13c, the z-score was inactive: 0.256. For GGACUGAUAGAGGACUUCCTT against Pldn, the z-score was inactive: 0.0197. In the case of CCUGUCUUUGAACGAUGUGTT against Olfr1279, the z-score is reported as inactive: -0.419. With CCCAUUCAACUUUAGGCCCTT against Hdac7a the z-score was inactive: 1.33. With CCUAUCUCGGUCAUUGGCATT against Mscp the z-score was inactive: -0.29. With “GGCUAAGAACCCACAGGAGTT against 2310044H10Rik” the z-score was inactive: 0.381. For GGCAAAAACAUGAUUCUCUTT against Rgmc, the z-score was inactive: 0.0148. For CGAAACCUGUUCUUCUGCCTT against Serpinb8, the z-score was inactive: -0.555. In the case of “CCUUACUUGUUCUCAUUUGTT against 4930422J18Rik”, the z-score is reported as inactive: -0.461. With GGAAUAAGAUCUGGUAUGATT against Idh2 the z-score was inactive: 0.968. For CCUAUUACAAUGUACGUGUTT against Ssh3, the z-score was inactive: 0.714. In the case of GGAUGUACUUGACACCCAGTT against Cyfip1, the z-score is reported as inactive: -0.21. For GGAAAACCAGAUAAAGAAATT against Cog1, the z-score was inactive: -0.576. With “GGACAAACUUCAAAAAGGUTT against 4932418E24Rik” the z-score was inactive: 2.24. In the case of GGCUUCCCGGAGUAACAAUTT against Dlgap1, the z-score is reported as inactive: -1.16. In the case of GGAGCAUCACAGAUAUCUATT against Ccr8, the z-score is reported as inactive: 0.74. In the case of GCAGAUUGGUUAAGUAUUCTT against Rttn, the z-score is reported as inactive: 1.08. With “GGACUUGUACCUGACCUGATT against 2310020H20Rik” the z-score was inactive: -2.93. With CCUUAUGCAUGACUUGAGUTT against Sec8l1 the z-score was inactive: 1.33. For GGCAGAGUGCUGACUUCAUTT against Cabc1, the z-score was inactive: -0.764. In the case of GCUUUCUGAAUCCCAAGAGTT against Sh3bgr, the z-score is reported as inactive: -0.0618. For GCAACACAUUUGAACCACUTT against Usp15, the z-score was active: 2.9. With GGUCUGGUAUGAGGAGAACTT against Prodh2 the z-score was inactive: -1.4. In the case of “GCCCAAGGUAGAUUCCAGCTT against 2410024A21Rik”, the z-score is reported as inactive: -0.883. In the case of GGCAGUUUCUGUGCUAUACTT against Olfr984, the z-score is reported as inactive: -1.84. With CCCUCUUUAUCGUCUGUGATT against Gpha2 the z-score was inactive: -0.468. For GGAUUUUGGCCAAAUUGGUTT against Slc25a30, the z-score was inactive: 0.184. For GGCUUGUAUGACAAUAAACTT against Vipr1, the z-score was inactive: 1.88. In the case of GCAGUUAAAGCAAGCCUCUTT against Tas2r107, the z-score is reported as inactive: -0.301. With GGAAUACAUCAUCCAGGUGTT against Cntfr the z-score was inactive: 0.3. With GGAAUUUGAAGCUCUUAUGTT against Add1 the z-score was inactive: 0.788. With GGUUUCCAUGUUCUUCCGATT against Pxk the z-score was inactive: -0.969. In the case of GGACUUGUGCAUUAAGUACTT against Fbxw11, the z-score is reported as inactive: 1.1. In the case of GGUCUUCAAAGAAAGGAUCTT against Farslb, the z-score is reported as inactive: -1.86. With “GGAAAAGAUAGAGUUACUUTT against 4933421E11Rik” the z-score was inactive: 0.536. With GGUUGAAUGAGGUUAUAAGTT against Harp the z-score was inactive: 0.156. In the case of GGAGAAACUGGACAACCUGTT against Eno2, the z-score is reported as inactive: 1.07. For “GGCAUGCUAAAAAUAACUGTT against 1810004F21Rik”, the z-score was inactive: 0.865. In the case of CCAAGCGAAAUCGAGGUGUTT against Mosg, the z-score is reported as inactive: -0.775. In the case of “GCCAAGCUUGCUGGAUCUUTT against 2310033P09Rik”, the z-score is reported as inactive: -1.04. With GGUGUUAAGUCACAAAAUGTT against Mrg1 the z-score was inactive: 0.556. In the case of GGAUAUGAAUGAGACCUUCTT against Cables2, the z-score is reported as inactive: -0.0231. With GGGAGCUAUGAACUCCUUUTT against Krtap5-5 the z-score was inactive: -0.916. For “GGAAAUGCUUGUUAAGGCUTT against 2510027J23Rik”, the z-score was inactive: 0.732. For GGAGAGCAGCAUUGAUAACTT against S100a5, the z-score was inactive: 0.0405. With GGAAAUCUCGUGAUUUUCATT against Tead1 the z-score was inactive: 1.63. In the case of GGUGAAUCGGGCCAAUAAGTT against Slc11a2, the z-score is reported as inactive: 1.25. With “GGAUGUAGACUUUAUCAAUTT against 4921508O11Rik” the z-score was inactive: 0.818.
